Assay results: patent publication US4001199A, “Novel polypeptides useful for treating diabetes and hypercholesteremia” (Takeda Chemical Industries, Ltd., priority 1974, dated 1977)
At least one peptide structure holds a part that was inferred or is arguable (an end, a ring closure or a residue). Square brackets hold non-standard residues; d marks the D form. Peptide text beside a SMILES is read from it. βAla = NCCC(=O)O

Tested on: genetically diabetic mice (KKA^y or yellow KK mice)
Experiment: Amelioration of diabetes: plasma and urinary glucose in genetically diabetic mice after oral dosing (glucose oxidase method)
Assay type: in vivo
Conditions: for PG: plasma glucose / UG: urinary glucose: oral
[1] = 1 mg/kg/day group, pre-treatment (baseline)
[2] = 1 mg/kg/day, 12th day (under head Post-treatment)
[3] = 1 mg/kg/day, drug-treatment 4th day
[4] = 1 mg/kg/day, drug-treatment 8th day
[5] = 1 mg/kg/day, post-treatment 16th day
[6] = 1 mg/kg/day, post-treatment 20th day
[7] = 10mg/kg/day group, pre-treatment (baseline)
[8] = 10mg/kg/day, 12th day (under head Post-treatment)
[9] = 10mg/kg/day, drug-treatment 4th day
[10] = 10mg/kg/day, drug-treatment 8th day
[11] = 10mg/kg/day, post-treatment 16th day
[12] = 10mg/kg/day, post-treatment 20th day
[13] = 100mg/kg/day group, pre-treatment (baseline)
[14] = 100mg/kg/day, 12th day (under head Post-treatment)
[15] = 100mg/kg/day, drug-treatment 4th day
[16] = 100mg/kg/day, drug-treatment 8th day
[17] = 100mg/kg/day, post-treatment 16th day
[18] = 100mg/kg/day, post-treatment 20th day

Q: With N=C(N)NCCC[C@H](NC(=O)CCN)C(=O)NCC(=O)N[C@@H](Cc1ccccc1)C(=O)N[C@@H](Cc1ccccc1)C(=O)N[C@@H](Cc1ccc(O)cc1)C(N)=O [Compound A, β-Ala-L- Arg-Gly-L-Phe-L-Phe-L-Tyr-NH2] (H-[βAla]RGFFY-NH2) as the molecule, how does the “PG: plasma glucose” value [1] read?
A: 457±43 mg./100 ml.

Q: What about the “UG: urinary glucose” value [1] of the same molecule?
A: 0.595 g/day

Q: And the “PG: plasma glucose” value [2]?
A: 370 mg./100 ml.

Q: What about the “UG: urinary glucose” value [2] of the same molecule?
A: 0.190 g/day

Q: What about the “PG: plasma glucose” value [3] of the same molecule?
A: 352 mg./100 ml.

Q: What about the “UG: urinary glucose” value [3] of the same molecule?
A: 0.299 g/day

Q: What about the “PG: plasma glucose” value [4] of the same molecule?
A: 343 mg./100 ml.

Q: What about the “UG: urinary glucose” value [4] of the same molecule?
A: 0.213 g/day

Q: And the “PG: plasma glucose” value [5]?
A: 469 mg./100 ml.

Q: What about the “UG: urinary glucose” value [5] of the same molecule?
A: 0.451 g/day

Q: And the “PG: plasma glucose” value [6]?
A: 523 mg./100 ml.

Q: And the “UG: urinary glucose” value [6]?
A: 0.450 g/day

Q: And the “PG: plasma glucose” value [7]?
A: 458±43 mg./100 ml.

Q: And the “UG: urinary glucose” value [7]?
A: 0.571 g/day

Q: And the “PG: plasma glucose” value [8]?
A: 354 mg./100 ml.

Q: And the “UG: urinary glucose” value [8]?
A: 0.0858 g/day

Q: And the “PG: plasma glucose” value [9]?
A: 433 mg./100 ml.

Q: And the “UG: urinary glucose” value [9]?
A: 0.160 g/day

Q: What about the “PG: plasma glucose” value [10] of the same molecule?
A: 338 mg./100 ml.

Q: And the “UG: urinary glucose” value [10]?
A: 0.0786 g/day

Q: And the “PG: plasma glucose” value [11]?
A: 396 mg./100 ml.

Q: What about the “UG: urinary glucose” value [11] of the same molecule?
A: 0.238 g/day

Q: And the “PG: plasma glucose” value [12]?
A: 513 mg./100 ml.

Q: And the “UG: urinary glucose” value [12]?
A: 0.478 g/day

Q: What about the “PG: plasma glucose” value [13] of the same molecule?
A: 455±14 mg./100 ml.

Q: And the “UG: urinary glucose” value [13]?
A: 0.582 g/day

Q: And the “PG: plasma glucose” value [14]?
A: 232 mg./100 ml.

Q: And the “UG: urinary glucose” value [14]?
A: 0.0466 g/day

Q: What about the “PG: plasma glucose” value [15] of the same molecule?
A: 344 mg./100 ml.

Q: And the “UG: urinary glucose” value [15]?
A: 0.0743 g/day

Q: And the “PG: plasma glucose” value [16]?
A: 254 mg./100 ml.

Q: And the “UG: urinary glucose” value [16]?
A: 0.0446 g/day

Q: What about the “PG: plasma glucose” value [17] of the same molecule?
A: 339 mg./100 ml.

Q: And the “UG: urinary glucose” value [17]?
A: 0.0750 g/day

Q: And the “PG: plasma glucose” value [18]?
A: 457 mg./100 ml.

Q: And the “UG: urinary glucose” value [18]?
A: 0.250 g/day

Q: What about the “effect on diabetes of these mice (conclusion)” value (oral, 1, 10 and 100 mg/kg/day) of the same molecule?
A: ameliorates diabetes

Q: And the “plasma glucose or urinary glucose of treated groups during the treatment” value (oral, 1, 10 and 100 mg/kg/day, dose-dependent)?
A: gradually decreasing
